Measurements from patent US11319343B2, “Method of treatment” (ROYAL MELBOURNE INSTITUTE OF TECHNOLOGY, priority 2017, dated 2022).
At least one peptide structure holds a part that was inferred or is arguable (an end, a ring closure or a residue). Residues, ends and D or L forms follow the SMILES beside them.

The chains behind the UniProt entries cited, without tags or fusion partners. Residues count along the entry.
UniProt Q9QUN7, 25-784: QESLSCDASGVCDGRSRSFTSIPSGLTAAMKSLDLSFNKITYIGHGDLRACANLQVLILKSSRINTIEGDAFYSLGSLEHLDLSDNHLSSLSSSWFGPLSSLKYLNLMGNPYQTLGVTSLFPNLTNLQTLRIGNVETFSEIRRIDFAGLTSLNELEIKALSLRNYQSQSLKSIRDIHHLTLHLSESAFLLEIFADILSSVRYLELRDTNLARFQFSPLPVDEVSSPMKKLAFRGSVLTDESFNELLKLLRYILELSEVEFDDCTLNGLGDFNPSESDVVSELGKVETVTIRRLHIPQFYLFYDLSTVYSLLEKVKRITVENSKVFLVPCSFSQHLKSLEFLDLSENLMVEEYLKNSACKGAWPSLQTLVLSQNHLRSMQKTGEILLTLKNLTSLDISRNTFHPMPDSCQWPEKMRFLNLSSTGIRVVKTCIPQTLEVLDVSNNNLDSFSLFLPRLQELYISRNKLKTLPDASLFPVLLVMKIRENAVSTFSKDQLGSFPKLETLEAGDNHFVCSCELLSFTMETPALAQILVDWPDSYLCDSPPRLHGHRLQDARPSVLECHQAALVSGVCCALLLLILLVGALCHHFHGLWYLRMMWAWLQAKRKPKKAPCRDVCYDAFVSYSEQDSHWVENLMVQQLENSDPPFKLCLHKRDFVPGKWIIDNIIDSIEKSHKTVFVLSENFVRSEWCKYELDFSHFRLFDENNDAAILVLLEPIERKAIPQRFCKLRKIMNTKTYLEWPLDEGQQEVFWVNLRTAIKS
UniProt Q9JLF7, 27-859: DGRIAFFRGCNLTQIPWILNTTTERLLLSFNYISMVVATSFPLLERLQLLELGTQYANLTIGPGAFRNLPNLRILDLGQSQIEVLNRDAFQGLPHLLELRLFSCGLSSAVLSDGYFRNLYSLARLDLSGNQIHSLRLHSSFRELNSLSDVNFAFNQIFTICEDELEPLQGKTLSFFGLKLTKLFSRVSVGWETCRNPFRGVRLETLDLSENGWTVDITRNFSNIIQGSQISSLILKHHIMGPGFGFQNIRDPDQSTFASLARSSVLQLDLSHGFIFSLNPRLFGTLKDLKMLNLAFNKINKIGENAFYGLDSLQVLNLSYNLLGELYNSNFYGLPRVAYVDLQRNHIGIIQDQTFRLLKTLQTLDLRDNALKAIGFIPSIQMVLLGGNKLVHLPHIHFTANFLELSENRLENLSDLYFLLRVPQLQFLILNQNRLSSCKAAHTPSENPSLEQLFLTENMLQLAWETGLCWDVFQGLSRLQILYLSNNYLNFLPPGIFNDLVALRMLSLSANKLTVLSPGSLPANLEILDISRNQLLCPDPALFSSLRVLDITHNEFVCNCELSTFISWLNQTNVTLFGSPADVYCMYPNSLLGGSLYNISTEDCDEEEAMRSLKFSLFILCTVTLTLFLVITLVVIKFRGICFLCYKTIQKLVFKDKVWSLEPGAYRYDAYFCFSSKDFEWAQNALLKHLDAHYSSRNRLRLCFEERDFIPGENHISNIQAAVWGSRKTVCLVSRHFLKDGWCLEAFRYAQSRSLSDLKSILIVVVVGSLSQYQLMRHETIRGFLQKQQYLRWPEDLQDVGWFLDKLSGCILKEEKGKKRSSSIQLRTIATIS

Assays:
Type in all cases: cell-based
[1] = tested on: TLR7; test: TLR7 expression after C98i
[2] = target: T1, TLR9 (Mus musculus, UniProt Q9EQU3); test: TLR9 response with C98i
T1 construct: endogenous in cells; host or cells: macrophages (BMDM or RAW264.7)
T1 sequence (Q9EQU3 26-1032): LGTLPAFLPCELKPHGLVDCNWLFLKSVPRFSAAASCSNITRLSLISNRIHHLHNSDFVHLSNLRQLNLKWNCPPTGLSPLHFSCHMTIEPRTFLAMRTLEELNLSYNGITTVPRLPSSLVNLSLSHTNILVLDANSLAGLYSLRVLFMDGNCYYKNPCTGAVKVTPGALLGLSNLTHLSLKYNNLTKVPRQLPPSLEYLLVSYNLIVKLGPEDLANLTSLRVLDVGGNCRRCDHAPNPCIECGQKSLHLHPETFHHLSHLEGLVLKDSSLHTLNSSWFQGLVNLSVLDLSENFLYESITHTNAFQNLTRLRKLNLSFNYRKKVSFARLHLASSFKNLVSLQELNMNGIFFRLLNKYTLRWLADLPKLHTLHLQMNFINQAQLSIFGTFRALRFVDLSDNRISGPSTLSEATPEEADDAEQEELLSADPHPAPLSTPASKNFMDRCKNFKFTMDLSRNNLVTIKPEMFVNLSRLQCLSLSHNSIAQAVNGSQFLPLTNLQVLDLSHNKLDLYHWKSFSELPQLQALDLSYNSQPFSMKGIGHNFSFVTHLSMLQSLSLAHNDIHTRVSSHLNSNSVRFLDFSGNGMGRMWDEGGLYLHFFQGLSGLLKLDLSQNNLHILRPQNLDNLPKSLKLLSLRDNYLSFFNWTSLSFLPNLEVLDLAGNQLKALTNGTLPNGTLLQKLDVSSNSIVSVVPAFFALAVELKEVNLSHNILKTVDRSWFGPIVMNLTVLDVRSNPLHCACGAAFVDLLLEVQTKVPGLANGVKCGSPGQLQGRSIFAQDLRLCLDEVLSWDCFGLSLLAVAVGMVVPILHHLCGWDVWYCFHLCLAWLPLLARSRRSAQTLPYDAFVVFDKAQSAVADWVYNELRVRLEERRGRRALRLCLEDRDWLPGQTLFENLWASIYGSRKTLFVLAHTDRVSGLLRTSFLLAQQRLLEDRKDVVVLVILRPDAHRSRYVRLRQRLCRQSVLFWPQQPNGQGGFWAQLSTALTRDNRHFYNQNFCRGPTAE

[3] = target: T2, TLR4 (Mus musculus, UniProt Q9JHF9+Q9QUK6); test: TLR4 agonist response with C98i
T2 construct: endogenous in cells; host or cells: RAW264.7 or BMDM cells
T2 sequence (Q9QUK6 26-835): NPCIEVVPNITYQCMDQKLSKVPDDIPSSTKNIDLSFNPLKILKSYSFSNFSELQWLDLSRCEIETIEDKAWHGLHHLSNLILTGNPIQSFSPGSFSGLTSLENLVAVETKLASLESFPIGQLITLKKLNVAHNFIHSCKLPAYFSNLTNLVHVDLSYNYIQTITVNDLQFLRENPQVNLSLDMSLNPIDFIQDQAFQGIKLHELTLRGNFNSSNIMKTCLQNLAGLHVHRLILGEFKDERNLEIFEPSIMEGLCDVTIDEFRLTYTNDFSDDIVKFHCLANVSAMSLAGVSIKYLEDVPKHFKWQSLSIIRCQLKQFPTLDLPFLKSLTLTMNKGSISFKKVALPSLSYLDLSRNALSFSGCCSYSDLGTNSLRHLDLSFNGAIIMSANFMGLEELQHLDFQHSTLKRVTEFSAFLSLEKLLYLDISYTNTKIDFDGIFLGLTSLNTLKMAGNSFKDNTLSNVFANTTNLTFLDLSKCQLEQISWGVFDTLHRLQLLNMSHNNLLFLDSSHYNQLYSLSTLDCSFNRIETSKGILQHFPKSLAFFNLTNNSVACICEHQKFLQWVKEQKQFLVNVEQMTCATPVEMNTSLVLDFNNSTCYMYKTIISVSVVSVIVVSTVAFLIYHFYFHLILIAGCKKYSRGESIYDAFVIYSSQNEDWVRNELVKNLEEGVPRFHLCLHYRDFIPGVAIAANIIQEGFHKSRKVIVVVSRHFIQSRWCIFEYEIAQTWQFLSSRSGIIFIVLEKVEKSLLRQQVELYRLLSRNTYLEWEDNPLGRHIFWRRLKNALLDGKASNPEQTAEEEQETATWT
T2 sequence (Q9JHF9 19-160): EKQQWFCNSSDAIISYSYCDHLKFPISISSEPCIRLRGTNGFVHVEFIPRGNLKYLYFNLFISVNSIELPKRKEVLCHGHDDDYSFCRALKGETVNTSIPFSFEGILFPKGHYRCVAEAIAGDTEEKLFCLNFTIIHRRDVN

[4] = tested on: Influenza A virus (X31)
[5] = target: T3, TLR2 (Mus musculus, UniProt Q9QUN7); test: TLR2 agonist response with C98i
T3 construct: endogenous in cells; host or cells: RAW264.7 or BMDM cells

[6] = target: T4, TLR5 (Mus musculus, UniProt Q9JLF7); test: TLR5 agonist response with C98i
T4 construct: endogenous in cells; host or cells: RAW264.7 or BMDM cells

[7] = target: T5, TLR7 (Mus musculus, UniProt P58681); test: TLR7 agonist response (cytokine expression) in bone marrow derived macrophages with C98i peptides
T5 construct: endogenous in cells; host or cells: immortalized bone marrow-derived macrophages (BMDMs) or RAW264.7 cells
T5 sequence (P58681 27-1050): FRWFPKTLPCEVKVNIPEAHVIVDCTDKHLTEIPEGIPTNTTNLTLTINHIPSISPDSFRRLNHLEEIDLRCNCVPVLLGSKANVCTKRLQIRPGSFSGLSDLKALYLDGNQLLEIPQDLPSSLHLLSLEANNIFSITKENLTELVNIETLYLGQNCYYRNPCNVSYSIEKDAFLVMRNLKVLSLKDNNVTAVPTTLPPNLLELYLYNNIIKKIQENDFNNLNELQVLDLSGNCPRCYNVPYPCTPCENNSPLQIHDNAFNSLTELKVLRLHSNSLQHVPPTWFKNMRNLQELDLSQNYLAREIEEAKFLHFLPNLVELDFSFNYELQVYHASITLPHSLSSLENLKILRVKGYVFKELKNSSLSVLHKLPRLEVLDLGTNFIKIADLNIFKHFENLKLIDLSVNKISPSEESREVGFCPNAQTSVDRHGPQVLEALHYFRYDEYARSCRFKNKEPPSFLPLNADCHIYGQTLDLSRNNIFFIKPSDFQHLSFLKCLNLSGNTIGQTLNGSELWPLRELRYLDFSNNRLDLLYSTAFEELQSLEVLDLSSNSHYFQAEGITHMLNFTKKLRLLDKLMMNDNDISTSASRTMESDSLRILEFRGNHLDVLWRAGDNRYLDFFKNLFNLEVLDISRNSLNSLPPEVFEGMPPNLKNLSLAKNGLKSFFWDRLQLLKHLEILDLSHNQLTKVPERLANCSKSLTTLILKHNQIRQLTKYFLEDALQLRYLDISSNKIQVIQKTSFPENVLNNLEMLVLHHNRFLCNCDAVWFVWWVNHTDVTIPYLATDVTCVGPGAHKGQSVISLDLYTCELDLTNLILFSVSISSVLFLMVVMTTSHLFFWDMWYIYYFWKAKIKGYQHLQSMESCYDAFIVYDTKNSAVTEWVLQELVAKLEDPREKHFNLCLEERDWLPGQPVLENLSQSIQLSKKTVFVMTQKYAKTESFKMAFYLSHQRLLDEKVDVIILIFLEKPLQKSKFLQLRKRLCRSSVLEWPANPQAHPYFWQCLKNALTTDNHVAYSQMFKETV

Compound | TLR7 expression [1] | effect on TLR9 [2] | effect on TLR4 agonist response [3] | Influenza A virus (X31) response (IL-6-mRNA expression) in vitro [4] | effect on TLR2 agonist response [5] | TLR5 activity [6] | cytokine IL-1β generated by bone marrow derived macrophages after exposure to imiquimod ([7]; C98i 1 hr prior to imiquimod, 24 h, quantitative real time PCR) | TLR7 response to the TLR7 agonist gardiquimod (IL-1β) ([7]; C98i 1 hr prior, 24 h, quantitative real time PCR) | basal un-stimulated levels of IL-1β ([7]; C98i alone 1 hr, 24 h) | TLR7 activity ([7]; imiquimod, conclusion from FIGS. 12 and 15) | TLR7 agonist, imiquimod, responses in vitro (IL-1β production) ([7]; peptide without TAT)
CC(C)C[C@H](NC(=O)[C@@H](NC(=O)[C@@H]1CCCN1C(=O)[C@@H](NC(=O)[C@H](CS)NC(=O)[C@H](CC(N)=O)NC(=O)[C@H](CS)NC(=O)[C@H](CCCNC(=N)N)NC(=O)[C@H](CC(C)C)NC(=O)[C@H](CC(=O)O)NC(=O)[C@H](CCCNC(=N)N)NC(=O)[C@H](CCCNC(=N)N)NC(=O)[C@H](CCCNC(=N)N)NC(=O)[C@H](CCC(N)=O)NC(=O)[C@H](CCCNC(=N)N)NC(=O)[C@H](CCCNC(=N)N)NC(=O)[C@H](CCCCN)NC(=O)[C@H](CCCCN)NC(=O)[C@H](CCCNC(=N)N)NC(=O)CNC(=O)[C@@H](N)Cc1ccc(O)cc1)C(C)C)C(C)C)C(N)=O [C98i] (H-YGRKKRRQRRRDLRCNCVPVL-NH2) | no adverse effect | no effect | no effect | inhibits | no effect | does not influence | elevated | blocks TLR7 response | No effect | blocking TLR7 activity | –
CC(C)C[C@H](NC(=O)[C@@H](NC(=O)[C@@H]1CCCN1C(=O)[C@@H](NC(=O)[C@H](CS)NC(=O)[C@H](CC(N)=O)NC(=O)[C@H](CS)NC(=O)[C@H](CCCNC(=N)N)NC(=O)[C@H](CC(C)C)NC(=O)[C@@H](N)CC(=O)O)C(C)C)C(C)C)C(N)=O [C98i no TAT, DLRCNCVPVL-NH2] (H-DLRCNCVPVL-NH2) | – | – | – | – | – | – | – | – | – | – | retains its ability to inhibit
